From the supplement of paper PMC12067093, “Discovery and optimisation of a covalent ligand for TRIM25 and its application to targeted protein ubiquitination” (Chemical Science, 2025)
Some of the results follow.

Chains of the proteins cited; added tags and fusions are not shown. Lines headed by an entry give the natural chain unless they say otherwise; changes in a name come on top.
UniProt O43813, whole entry, looked up: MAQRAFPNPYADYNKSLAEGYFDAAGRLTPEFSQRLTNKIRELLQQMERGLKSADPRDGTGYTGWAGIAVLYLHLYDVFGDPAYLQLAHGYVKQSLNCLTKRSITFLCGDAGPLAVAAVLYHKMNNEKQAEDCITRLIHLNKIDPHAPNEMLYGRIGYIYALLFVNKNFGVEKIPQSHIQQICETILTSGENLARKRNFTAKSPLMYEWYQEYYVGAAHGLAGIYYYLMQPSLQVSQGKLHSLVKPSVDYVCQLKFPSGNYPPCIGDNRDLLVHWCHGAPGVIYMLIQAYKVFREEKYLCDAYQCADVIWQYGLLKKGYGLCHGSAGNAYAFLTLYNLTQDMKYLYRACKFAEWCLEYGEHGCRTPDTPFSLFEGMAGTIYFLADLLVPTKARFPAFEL
UniProt Q9P2J5: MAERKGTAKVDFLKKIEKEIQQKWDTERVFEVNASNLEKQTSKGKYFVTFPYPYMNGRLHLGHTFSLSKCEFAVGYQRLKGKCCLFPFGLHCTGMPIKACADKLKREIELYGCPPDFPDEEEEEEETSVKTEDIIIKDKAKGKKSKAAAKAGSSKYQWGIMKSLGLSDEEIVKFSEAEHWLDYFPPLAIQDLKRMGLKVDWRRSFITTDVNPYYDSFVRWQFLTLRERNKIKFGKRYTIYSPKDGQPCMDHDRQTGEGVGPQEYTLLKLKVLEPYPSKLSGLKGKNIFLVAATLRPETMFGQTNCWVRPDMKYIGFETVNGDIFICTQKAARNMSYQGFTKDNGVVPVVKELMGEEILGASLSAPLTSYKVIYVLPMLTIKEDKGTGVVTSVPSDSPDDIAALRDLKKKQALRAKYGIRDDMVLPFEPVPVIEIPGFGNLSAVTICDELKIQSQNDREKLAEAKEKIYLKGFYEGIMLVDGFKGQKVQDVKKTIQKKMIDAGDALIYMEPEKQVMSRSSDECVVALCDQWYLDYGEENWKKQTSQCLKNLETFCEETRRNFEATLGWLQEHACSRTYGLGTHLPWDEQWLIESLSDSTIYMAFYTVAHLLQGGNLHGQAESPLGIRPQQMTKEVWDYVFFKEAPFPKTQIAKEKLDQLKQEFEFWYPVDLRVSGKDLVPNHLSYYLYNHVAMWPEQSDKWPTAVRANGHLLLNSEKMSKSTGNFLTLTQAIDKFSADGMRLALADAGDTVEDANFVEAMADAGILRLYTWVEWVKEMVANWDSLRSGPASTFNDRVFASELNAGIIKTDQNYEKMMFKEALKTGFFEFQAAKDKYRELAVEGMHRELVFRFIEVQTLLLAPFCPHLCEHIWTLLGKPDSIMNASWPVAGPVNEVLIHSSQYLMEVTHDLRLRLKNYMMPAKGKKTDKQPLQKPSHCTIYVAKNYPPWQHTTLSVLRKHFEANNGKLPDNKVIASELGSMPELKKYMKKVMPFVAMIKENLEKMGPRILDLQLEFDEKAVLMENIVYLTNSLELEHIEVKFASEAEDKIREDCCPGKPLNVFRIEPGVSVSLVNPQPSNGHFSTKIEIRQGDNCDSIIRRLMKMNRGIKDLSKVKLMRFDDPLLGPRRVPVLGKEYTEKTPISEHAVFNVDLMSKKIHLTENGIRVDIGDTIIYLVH
UniProt Q9P2K6: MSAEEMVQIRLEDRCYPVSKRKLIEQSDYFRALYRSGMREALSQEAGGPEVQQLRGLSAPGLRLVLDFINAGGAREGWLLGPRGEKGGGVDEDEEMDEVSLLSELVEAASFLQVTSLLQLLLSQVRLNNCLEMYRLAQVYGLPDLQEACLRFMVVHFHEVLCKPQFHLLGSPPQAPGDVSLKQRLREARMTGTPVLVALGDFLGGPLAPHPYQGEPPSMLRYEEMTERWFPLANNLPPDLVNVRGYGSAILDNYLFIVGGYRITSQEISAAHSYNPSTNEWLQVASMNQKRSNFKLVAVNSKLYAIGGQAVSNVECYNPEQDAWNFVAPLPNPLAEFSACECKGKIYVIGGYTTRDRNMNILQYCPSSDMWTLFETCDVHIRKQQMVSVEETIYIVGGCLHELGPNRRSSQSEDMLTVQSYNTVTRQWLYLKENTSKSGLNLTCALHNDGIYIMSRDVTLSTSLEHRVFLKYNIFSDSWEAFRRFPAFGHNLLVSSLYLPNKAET
UniProt Q96EM0: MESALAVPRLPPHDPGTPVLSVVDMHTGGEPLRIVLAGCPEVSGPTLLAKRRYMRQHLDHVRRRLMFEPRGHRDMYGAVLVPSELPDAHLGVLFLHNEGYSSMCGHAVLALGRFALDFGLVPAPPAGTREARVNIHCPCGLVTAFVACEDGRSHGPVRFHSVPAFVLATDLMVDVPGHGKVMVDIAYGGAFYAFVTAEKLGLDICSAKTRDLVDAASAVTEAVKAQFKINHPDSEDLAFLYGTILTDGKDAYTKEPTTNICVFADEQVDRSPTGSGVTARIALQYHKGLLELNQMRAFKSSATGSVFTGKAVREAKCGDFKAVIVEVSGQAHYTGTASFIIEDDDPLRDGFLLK
UniProt Q9Y2Q5, whole entry, looked up: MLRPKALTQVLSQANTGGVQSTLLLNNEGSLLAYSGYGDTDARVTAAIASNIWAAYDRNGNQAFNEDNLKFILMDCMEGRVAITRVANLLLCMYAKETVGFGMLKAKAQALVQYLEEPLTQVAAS
UniProt O00522: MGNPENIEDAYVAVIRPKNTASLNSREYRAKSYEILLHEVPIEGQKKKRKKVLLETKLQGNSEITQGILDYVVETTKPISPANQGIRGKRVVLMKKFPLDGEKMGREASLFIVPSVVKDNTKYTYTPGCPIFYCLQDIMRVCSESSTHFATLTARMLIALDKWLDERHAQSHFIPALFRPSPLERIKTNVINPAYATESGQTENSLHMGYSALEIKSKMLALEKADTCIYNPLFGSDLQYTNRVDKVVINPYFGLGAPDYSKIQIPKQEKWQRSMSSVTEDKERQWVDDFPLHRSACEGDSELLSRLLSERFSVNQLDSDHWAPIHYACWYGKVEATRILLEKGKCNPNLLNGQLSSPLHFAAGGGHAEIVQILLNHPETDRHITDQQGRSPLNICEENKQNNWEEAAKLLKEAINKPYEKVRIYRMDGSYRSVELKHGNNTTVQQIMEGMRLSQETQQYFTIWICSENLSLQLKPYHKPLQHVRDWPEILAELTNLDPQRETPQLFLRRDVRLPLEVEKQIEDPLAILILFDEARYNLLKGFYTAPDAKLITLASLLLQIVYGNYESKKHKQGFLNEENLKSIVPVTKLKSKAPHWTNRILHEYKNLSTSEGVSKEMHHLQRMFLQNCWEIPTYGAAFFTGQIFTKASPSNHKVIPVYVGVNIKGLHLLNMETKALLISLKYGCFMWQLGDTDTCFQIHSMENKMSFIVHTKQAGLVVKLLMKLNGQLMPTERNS
UniProt Q9UIC8: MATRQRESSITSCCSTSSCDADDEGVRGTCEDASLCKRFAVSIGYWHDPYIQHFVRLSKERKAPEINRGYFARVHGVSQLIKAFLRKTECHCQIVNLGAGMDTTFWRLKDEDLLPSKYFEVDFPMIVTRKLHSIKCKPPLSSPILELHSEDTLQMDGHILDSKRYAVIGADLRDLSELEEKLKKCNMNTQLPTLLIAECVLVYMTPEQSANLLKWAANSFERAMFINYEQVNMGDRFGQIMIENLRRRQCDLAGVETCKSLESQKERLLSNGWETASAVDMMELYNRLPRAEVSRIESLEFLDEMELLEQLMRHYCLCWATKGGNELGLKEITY
UniProt P50748: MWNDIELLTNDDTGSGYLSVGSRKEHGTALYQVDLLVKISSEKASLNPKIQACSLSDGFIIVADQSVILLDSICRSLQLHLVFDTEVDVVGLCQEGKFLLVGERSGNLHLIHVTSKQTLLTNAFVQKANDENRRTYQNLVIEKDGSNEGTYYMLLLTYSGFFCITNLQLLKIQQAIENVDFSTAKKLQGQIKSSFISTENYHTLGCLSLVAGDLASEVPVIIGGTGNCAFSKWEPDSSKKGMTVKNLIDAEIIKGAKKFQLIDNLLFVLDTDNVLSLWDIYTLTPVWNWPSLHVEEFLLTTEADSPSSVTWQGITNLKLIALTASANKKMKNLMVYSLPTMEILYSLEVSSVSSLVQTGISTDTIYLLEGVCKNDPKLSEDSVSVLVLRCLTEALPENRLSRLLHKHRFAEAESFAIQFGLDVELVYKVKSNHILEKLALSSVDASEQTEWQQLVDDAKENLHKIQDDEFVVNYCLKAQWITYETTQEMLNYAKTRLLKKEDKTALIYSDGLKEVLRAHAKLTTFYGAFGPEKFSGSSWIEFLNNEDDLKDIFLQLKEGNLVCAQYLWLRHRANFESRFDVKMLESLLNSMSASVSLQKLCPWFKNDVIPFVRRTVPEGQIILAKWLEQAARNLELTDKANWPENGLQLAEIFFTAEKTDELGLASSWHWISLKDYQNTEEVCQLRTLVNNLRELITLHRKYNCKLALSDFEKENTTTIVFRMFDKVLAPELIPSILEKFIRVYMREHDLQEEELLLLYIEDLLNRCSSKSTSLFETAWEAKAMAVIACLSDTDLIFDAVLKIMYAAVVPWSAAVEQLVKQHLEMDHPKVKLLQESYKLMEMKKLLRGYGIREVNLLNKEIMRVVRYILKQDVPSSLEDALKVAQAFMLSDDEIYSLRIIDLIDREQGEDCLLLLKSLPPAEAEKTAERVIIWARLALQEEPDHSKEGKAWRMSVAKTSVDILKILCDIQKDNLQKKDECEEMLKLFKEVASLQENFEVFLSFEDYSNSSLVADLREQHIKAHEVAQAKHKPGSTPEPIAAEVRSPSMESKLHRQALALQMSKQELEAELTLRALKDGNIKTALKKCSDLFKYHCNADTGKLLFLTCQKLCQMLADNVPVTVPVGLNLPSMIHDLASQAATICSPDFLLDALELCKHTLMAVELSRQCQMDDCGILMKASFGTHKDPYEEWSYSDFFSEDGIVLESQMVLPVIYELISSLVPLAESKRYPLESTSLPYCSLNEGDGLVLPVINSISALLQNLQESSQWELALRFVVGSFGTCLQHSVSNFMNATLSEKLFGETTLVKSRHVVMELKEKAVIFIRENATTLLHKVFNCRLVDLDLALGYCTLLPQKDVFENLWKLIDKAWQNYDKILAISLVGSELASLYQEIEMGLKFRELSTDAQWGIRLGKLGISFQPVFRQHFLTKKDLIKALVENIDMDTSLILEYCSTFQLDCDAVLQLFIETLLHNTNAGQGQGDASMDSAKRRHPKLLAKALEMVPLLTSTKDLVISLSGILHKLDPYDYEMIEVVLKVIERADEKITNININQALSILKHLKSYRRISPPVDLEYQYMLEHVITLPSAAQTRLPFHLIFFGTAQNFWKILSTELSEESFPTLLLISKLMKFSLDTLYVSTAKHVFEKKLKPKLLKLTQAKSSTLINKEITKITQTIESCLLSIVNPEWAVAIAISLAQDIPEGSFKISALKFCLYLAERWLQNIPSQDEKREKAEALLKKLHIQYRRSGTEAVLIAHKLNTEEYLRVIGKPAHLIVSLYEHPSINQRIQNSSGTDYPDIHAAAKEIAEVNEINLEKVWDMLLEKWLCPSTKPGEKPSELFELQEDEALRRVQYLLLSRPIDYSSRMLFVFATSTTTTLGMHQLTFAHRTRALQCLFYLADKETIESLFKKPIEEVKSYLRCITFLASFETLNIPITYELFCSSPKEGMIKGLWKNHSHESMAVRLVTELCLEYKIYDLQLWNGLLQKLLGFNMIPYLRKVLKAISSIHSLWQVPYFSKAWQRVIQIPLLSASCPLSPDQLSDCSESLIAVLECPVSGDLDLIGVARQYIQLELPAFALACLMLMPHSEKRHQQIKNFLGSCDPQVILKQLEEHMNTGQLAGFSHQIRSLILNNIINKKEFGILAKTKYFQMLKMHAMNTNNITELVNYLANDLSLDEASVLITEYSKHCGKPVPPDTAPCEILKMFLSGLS

Compound: CC1Cc2ccccc2N1C(=O)C1CCCN(C1)C(=O)CCl (mixture of isomers) [TRIM25 ligand 11 (diastereomer mixture)]
Assay: probe-labelled cysteine peptide fold change vs DMSO (competition) (log2 fold change); higher = less target engagement (more negative = stronger competition)
Details: THP-1, incubation time: 4 h
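Further: competitive chemoproteomic profiling in live THP-1 cells with an iodoacetamide desthiobiotin (IA-DTB) probe, comparing probe-labelled peptide intensities in compound-treated cells against DMSO-treated controls.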

Target	probe-labelled cysteine peptide fold change (10 µM)	probe-labelled cysteine peptide fold change (50 µM)
LANCL1_O43813_183_IPQSHIQQICETILTSGENLAR (UniProt O43813)	0.188	0.223
LARS_Q9P2J5_936_QPLQKPSHCTIYVAK (UniProt Q9P2J5)	-0.184	-0.302
LANCL2_Q9NS86_350_EAMECSDVIWQR (UniProt Q9NS86)	-0.0151	-0.123
LAS1L_Q9Y4W2_456_LFNCSASLDWPR (UniProt Q9Y4W2)	0.0525	0.142
LCP1_P13796_164_HVIPMNPNTNDLFNAVGDGIVLCK (UniProt P13796)	-0.0358	-0.0341
KPNA1_P52294_424_YLVELGCIK (UniProt P52294)	0.213	0.184
KLHL42_Q9P2K6_444_SGLNLTCALHNDGIYIMSR (UniProt Q9P2K6)	0.123	0.133
KPNB1_Q14974_392_YRDAAVMAFGCILEGPEPSQLK (UniProt Q14974)	-0.231	-0.049
KIF21A_Q7Z4S6_1603_DWVCALGVVPDHPVLLSGCR (UniProt Q7Z4S6)	0.0441	-0.0516
L3HYPDH_Q96EM0_39_IVLAGCPEVSGPTLLAK (UniProt Q96EM0)	0.093	0.0603
LAMTOR2_Q9Y2Q5_76_FILMDCMEGR (UniProt Q9Y2Q5)	-0.0173	0.16
KRIT1_O00522_297_SACEGDSELLSR (UniProt O00522)	0.101	-0.0711
KLC2_Q9H0B6_474_LEAAHTLEDCASR (UniProt Q9H0B6)	-0.0419	-0.0206
LAP3_P28838_376_LILADALCYAHTFNPK (UniProt P28838)	-0.0305	0.105
KLHL6_Q8WZ60_252_LCLLPYVLENVR (UniProt Q8WZ60)	0.147	-0.0158
LCMT1_Q9UIC8_136_CKPPLSSPILELHSEDTLQMDGHILDSK (UniProt Q9UIC8)	0.0129	-0.112
L3HYPDH_Q96EM0_205_LGLDICSAK (UniProt Q96EM0)	0.113	0.229
KIF4A_O95239_269_GLLCLGNVISALGDDKK (UniProt O95239)	-0.138	-0.0945

Target	probe-labelled cysteine peptide fold change (10 µM)	probe-labelled cysteine peptide fold change (50 µM)
LARP1_Q6PKG0_864_TASISSSPSEGTPTVGSYGCTPQSLPK (UniProt Q6PKG0)	-0.0729	-0.161
KMT2B_Q9UMN6_353_VGSGQGGSPCWK (UniProt Q9UMN6)	-0.0522	-0.253
LCP1_P13796_336_AECMLQQAER (UniProt P13796)	-0.0301	-0.0249
LCOR_Q96JN0-3_968_NAHIPSESIACK (UniProt Q96JN0)	0.0458	-0.153
KNTC1_P50748_1825_WLCPSTKPGEKPSELFELQEDEALRR (UniProt P50748)	0.147	0.0685
LCP1_P13796_206_KLTPFTIQENLNLALNSASAIGCHVVNIGAEDLK (UniProt P13796)	-0.164	0.0204
LARS_Q9P2J5_573_RNFEATLGWLQEHACSR (UniProt Q9P2J5)	-0.161	-0.0673
LCMT1_Q9UIC8_136_CKPPLSSPILELHSEDTLQMDGHILDSKR (UniProt Q9UIC8)	-0.147	0.00231
KLHL26_Q53HC5_480_ALHCYDPVADQWEFK (UniProt Q53HC5)	-0.0482	-0.0399
KLHL22_Q53GT1_11_AEEQEFTQLCK (UniProt Q53GT1)	-0.0302	-0.0351
KMT2D_O14686_5338_HPLMELPLMINPTGCAR (UniProt O14686)	-0.039	0.367
KPNA6_O60684_253_VSPCLPVLSR (UniProt O60684)	-0.167	-0.102
KMT5B_Q4FZB7_54_CNGNSGFEGQSR (UniProt Q4FZB7)	-0.166	-0.314
LARP4_Q71RC2_623_KLSYAEVCQKPPKEPSSVLVQPLR (UniProt Q71RC2)	-0.0136	-0.246
LCMT1_Q9UIC8_250_QCDLAGVETCK (UniProt Q9UIC8)	0.0214	0.123
KPNB1_Q14974_345_GALQYLVPILTQTLTKQDENDDDDDWNPCK (UniProt Q14974)	-0.0833	-0.245
KTN1_Q86UP2_1136_EADEMHTLLQLECEK (UniProt Q86UP2)	0.0345	0.156
